# This is one part of the list. Residues, ends and D or L forms follow the SMILES beside them. *: point of attachment. Cbz = O=C(OCc1ccccc1)*
# Sequences of proteins named here, by UniProt entry; tags and fusion partners are left off. A change or cut given only in a name is not applied to a line headed by its entry.
# UniProt P09884: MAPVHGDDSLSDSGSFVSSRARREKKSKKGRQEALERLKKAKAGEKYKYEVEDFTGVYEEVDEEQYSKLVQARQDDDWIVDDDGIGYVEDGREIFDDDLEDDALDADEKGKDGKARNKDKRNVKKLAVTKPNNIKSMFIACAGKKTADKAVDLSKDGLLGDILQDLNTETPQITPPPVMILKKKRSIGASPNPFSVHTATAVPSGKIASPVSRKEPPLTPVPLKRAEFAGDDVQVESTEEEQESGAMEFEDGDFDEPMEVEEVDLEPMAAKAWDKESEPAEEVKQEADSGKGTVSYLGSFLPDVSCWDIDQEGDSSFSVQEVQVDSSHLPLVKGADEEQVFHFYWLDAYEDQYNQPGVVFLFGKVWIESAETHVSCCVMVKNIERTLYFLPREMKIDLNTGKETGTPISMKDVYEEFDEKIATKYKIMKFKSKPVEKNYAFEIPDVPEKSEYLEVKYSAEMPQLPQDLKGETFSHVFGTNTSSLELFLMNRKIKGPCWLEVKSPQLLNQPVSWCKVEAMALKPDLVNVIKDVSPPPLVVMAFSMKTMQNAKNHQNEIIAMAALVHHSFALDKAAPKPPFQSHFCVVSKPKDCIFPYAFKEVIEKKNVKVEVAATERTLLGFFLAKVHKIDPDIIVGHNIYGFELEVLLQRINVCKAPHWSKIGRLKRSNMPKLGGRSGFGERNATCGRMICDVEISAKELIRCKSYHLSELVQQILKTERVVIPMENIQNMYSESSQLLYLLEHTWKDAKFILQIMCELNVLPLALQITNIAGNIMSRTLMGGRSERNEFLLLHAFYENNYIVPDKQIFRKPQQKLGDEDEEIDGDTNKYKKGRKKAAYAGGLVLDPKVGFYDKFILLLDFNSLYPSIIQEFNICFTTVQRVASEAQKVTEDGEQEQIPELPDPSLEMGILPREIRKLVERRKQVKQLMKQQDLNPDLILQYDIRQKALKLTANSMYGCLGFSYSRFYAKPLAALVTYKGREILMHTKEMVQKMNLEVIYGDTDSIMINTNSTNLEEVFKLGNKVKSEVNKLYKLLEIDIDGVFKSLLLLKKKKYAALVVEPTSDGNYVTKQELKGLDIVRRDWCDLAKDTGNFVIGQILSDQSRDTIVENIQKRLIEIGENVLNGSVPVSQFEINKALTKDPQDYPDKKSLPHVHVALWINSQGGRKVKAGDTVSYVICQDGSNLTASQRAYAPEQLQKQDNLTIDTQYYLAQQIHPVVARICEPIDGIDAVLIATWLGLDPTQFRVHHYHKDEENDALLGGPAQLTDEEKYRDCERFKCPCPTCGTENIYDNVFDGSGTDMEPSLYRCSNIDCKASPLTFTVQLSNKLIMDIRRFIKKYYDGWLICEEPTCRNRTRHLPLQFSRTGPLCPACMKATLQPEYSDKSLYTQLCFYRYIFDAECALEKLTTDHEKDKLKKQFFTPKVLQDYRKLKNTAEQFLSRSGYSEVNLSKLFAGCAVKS
# UniProt O95602, whole entry, looked up: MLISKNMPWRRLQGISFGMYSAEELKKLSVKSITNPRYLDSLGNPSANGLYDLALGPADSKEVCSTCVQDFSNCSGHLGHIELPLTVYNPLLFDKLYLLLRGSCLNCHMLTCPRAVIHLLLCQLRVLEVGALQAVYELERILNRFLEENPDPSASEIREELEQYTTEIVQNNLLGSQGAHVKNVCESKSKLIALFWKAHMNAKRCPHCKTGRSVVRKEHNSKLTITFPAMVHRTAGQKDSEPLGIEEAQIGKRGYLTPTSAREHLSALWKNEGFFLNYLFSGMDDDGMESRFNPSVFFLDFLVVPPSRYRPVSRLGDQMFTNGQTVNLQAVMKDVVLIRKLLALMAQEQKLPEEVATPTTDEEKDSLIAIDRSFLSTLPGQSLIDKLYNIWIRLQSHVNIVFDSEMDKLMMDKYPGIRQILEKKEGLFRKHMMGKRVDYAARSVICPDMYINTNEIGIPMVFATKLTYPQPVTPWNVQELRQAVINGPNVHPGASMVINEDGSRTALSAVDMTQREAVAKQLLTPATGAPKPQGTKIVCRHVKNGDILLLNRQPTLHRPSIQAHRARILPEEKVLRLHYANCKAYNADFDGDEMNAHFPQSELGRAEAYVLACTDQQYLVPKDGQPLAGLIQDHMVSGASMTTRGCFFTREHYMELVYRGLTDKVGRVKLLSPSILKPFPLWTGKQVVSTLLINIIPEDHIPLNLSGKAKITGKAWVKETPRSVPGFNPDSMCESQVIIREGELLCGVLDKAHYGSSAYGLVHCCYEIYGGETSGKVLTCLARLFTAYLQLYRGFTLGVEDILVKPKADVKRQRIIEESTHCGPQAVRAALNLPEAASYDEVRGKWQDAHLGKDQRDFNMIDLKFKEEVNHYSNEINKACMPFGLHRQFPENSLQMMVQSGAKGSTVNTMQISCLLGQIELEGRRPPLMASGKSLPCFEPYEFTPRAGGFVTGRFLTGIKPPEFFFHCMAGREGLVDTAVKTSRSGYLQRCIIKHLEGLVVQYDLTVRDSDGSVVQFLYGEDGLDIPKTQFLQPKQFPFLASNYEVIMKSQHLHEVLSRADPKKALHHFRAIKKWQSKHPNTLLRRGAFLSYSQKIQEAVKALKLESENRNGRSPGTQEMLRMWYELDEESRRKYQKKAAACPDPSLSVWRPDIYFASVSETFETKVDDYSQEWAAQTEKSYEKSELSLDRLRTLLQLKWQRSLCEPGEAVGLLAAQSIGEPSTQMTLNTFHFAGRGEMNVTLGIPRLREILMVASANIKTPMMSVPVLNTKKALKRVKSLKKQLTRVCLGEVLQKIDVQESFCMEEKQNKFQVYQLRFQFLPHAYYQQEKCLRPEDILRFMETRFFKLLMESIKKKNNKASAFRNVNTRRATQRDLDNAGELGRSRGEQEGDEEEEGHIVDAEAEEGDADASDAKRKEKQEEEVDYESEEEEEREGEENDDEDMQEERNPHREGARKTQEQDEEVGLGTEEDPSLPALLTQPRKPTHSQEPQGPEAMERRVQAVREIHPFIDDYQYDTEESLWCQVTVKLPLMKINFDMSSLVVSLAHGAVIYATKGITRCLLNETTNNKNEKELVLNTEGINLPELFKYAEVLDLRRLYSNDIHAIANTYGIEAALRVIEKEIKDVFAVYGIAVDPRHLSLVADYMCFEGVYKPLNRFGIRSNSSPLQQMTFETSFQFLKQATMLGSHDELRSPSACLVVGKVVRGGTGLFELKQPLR
# UniProt Q9NZ53: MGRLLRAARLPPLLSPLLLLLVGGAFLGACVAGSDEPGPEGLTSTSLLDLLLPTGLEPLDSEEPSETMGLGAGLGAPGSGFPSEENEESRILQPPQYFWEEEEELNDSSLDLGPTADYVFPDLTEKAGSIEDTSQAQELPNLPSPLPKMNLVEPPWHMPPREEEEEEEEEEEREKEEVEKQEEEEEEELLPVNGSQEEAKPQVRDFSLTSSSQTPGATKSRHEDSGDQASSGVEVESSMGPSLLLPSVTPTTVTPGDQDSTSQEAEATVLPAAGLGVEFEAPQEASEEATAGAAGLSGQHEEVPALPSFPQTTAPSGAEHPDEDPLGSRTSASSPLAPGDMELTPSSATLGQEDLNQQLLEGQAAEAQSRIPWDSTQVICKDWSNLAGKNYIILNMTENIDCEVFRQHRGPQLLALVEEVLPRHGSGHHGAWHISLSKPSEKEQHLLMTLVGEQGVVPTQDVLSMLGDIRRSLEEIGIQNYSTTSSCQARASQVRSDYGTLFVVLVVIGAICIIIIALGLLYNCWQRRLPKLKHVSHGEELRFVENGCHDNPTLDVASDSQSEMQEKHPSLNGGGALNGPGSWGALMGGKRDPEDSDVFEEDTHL
# UniProt O15305: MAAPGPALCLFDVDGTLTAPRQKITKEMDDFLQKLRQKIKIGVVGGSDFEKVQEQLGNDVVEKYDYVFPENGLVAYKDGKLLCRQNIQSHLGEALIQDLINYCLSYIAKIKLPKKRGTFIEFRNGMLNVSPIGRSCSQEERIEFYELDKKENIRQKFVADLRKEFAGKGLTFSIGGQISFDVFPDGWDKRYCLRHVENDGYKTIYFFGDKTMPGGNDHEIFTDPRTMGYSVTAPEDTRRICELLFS
# UniProt Q9NRF9: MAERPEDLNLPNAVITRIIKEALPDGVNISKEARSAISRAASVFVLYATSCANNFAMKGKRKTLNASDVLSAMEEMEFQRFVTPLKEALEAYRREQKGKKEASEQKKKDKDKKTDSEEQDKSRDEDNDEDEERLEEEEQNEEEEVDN
# UniProt Q9H5K3: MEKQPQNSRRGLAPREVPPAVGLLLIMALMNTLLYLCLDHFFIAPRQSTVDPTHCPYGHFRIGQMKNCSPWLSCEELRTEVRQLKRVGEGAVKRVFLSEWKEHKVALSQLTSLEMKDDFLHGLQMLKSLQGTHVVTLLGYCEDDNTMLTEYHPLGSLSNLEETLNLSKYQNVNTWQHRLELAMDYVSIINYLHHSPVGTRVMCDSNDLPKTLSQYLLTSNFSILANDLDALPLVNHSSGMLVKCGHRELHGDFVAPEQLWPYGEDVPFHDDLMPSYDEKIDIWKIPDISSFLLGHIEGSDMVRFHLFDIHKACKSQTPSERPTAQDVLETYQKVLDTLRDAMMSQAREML
# UniProt Q8NBL1: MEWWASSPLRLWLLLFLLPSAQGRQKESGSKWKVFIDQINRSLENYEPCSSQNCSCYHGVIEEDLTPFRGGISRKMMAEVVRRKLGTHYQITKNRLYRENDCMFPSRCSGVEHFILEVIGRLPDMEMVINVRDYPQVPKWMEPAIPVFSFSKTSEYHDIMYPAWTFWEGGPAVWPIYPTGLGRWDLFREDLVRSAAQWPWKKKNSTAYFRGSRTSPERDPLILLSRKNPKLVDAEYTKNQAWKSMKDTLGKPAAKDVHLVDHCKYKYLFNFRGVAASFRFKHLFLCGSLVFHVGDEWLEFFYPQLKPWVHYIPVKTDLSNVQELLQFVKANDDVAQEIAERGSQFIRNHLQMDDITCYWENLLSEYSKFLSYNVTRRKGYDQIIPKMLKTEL
# UniProt P28340: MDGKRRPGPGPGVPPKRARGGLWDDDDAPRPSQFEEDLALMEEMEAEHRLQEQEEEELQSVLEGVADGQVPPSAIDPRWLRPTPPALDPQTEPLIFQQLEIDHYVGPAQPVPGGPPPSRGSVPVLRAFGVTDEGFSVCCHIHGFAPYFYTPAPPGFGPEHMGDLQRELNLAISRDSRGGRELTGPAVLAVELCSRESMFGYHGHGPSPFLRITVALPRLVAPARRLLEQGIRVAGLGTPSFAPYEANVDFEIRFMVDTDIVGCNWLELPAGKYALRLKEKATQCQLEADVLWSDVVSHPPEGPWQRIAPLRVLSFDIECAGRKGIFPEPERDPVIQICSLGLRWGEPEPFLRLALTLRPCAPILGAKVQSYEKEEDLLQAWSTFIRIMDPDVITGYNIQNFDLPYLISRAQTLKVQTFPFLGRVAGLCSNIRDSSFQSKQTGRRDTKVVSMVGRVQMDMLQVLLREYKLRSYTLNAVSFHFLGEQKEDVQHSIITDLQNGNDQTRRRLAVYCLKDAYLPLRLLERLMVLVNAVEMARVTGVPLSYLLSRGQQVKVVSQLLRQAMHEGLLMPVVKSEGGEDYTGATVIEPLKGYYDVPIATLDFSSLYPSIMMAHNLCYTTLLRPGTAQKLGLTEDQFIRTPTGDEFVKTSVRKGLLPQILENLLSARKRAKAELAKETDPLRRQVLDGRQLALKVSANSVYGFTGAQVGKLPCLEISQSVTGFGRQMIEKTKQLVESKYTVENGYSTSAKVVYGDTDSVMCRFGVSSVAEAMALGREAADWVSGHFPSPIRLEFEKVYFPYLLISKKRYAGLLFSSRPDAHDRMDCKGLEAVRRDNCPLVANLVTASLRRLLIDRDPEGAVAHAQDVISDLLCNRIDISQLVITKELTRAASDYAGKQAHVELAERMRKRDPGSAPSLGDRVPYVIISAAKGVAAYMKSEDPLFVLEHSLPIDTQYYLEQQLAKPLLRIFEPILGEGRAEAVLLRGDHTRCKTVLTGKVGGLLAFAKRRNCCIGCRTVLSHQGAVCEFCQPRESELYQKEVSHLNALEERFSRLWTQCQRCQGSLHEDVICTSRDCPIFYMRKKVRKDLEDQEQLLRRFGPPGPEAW
# UniProt O15162: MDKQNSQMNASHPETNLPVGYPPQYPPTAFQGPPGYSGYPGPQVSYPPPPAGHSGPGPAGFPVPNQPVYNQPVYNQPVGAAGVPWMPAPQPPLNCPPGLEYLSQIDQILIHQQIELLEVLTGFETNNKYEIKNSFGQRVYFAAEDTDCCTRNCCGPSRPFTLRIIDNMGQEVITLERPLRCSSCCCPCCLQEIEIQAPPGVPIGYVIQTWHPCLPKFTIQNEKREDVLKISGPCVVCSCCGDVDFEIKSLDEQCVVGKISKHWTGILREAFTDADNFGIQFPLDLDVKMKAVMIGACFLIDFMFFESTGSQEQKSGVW
# UniProt Q9Y244: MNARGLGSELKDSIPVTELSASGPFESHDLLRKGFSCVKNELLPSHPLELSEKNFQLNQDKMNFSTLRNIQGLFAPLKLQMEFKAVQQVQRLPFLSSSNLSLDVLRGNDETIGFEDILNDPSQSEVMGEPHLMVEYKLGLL
# Assays:
# Experiment in all cases: log2 fold change, soluble protein after heating vs DMSO (PISA); higher = thermal stabilisation; K562 cells, 10 uM, 30 min; active = over 0.2 and 3.5 SD of the protein, either way, in both replicates (recomputed)
# erlotinib = compound: C#Cc1cccc(Nc2ncnc3cc(OCCOC)c(OCCOC)cc23)c1 [erlotinib]
# Summary of the method: (§1)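 K562 cells (2×10^6 cells/mL) were treated with 10 μM compound for 30 min, and aliquots were heated for 3 min over 48°C-58°C. Pooled aliquots were extracted in PBS with 0.5% NP-40 at 4°C, and the supernatant after 21,000xg for 90 min was measured by TMTpro 16plex LC-MS/MS with channel sums equalised. Reported thermal stability, relative to control samples and from duplicates, is a log2 fold change.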
# [1] = compound: C/C(=N\NC(=O)C1=CC(=CC=C1)S(=O)(=O)N2CCOCC2)/C3=C(C=CC(=C3)Cl)O
# Summary of the method: as §1
# [2] = compound: C1=CC(=C(C=C1Cl)C2=NC3=NC=CN=C3C(=N2)NC4=CC=NC=C4)F
# Summary of the method: as §1
# [3] = compound: C1=CC(=CC=C1C2=NC3=C(N2)C=C(C=C3)C(=O)N)OC4=CC=C(C=C4)Cl
# Summary of the method: as §1
# [4] = compound: C1=CC2=C(C=CC(=C2)/C=C\3/C(=O)NC(=NCC4=CC=CS4)S3)N=C1
# Summary of the method: as §1
# [5] = compound: C1=CC2=NC=CN=C2C=C1/C=C/3\C(=O)NC(=O)S3
# Summary of the method: as §1
# [6] = compound: C1=CC=C(C=C1)C2=NC(=C(N2)C3=CC=NC=C3)C4=CC(=C(C=C4)Cl)O
# Summary of the method: as §1
# [7] = compound: C1=CC=C2C(=C1)C3=NNC4=CC=CC(=C43)C2=O
# Summary of the method: as §1
# [8] = compound: C1CCN(C1)C(=O)NC2=CC=CC(=C2)NC3=NC=C(C(=N3)NCCC4=CN=CN4)Br
# Summary of the method: as §1
# [9] = compound: C1CN(CCC1(CC2=CC=C(C=C2)Cl)N)C3=NC=NC4=C3C=CN4
# Summary of the method: as §1
# IRAK-1-4 Inhibitor I = compound: C1COCCN1CCN2C3=CC=CC=C3N=C2NC(=O)C4=CC(=CC=C4)[N+](=O)[O-] [IRAK-1-4 Inhibitor I]
# Summary of the method: as §1
# ibrutinib = compound: C=CC(=O)N1CCC[C@@H](n2nc(-c3ccc(Oc4ccccc4)cc3)c3c(N)ncnc32)C1 [ibrutinib]
# Summary of the method: as §1
# [10] = compound: CC(=O)c1cnc2ccc(-c3cc(Cl)c(O)c(Cl)c3)nc2c1N[C@H]1CC[C@H](CN(C)C)CC1
# Summary of the method: as §1
# ralimetinib = compound: CC(C)(C)Cn1c(N)nc2ccc(-c3[nH]c(C(C)(C)C)nc3-c3ccc(F)cc3)nc21 [ralimetinib]
# Summary of the method: as §1
# [11] = compound: CC(C)(O)CC(=O)NCCn1ccc2ncnc(Nc3ccc(Oc4cccc(C(F)(F)F)c4)c(Cl)c3)c21
# Summary of the method: as §1
# [12] = compound: CC(C)C1=C2N=C(C=C(N2N=C1)NCC3=CC=CC=C3)NCCCCCCN
# Summary of the method: as §1
# [13] = compound: CC(C)C[C@@H](C=O)NC(=O)[C@H](CC(C)C)NC(=O)[C@H](CC(C)C)NC(=O)OCc1ccccc1
# Summary of the method: as §1
# pinometostat = compound: CC(C)N(C[C@H]1O[C@@H](n2cnc3c(N)ncnc32)[C@H](O)[C@@H]1O)[C@H]1C[C@@H](CCc2nc3cc(C(C)(C)C)ccc3[nH]2)C1 [pinometostat]
# Summary of the method: as §1
# [14] = compound: CC1=C(C2=C(C=C1)C(=O)C3=CC=CC=C3N2CCCN)C
# Summary of the method: as §1
# [15] = compound: CC1=C(C(CC(=O)N1)C2=CC=C(C=C2)C(F)(F)F)C(=O)NC3=C(C=C4C(=C3)C=NN4)F
# Summary of the method: as §1
Target,log2 fold change (erlotinib),log2 fold change [1],log2 fold change [2],log2 fold change [3],log2 fold change [4],log2 fold change [5],log2 fold change [6],log2 fold change [7],log2 fold change [8],log2 fold change [9],log2 fold change (IRAK-1-4 Inhibitor I),log2 fold change (ibrutinib),log2 fold change [10],log2 fold change (ralimetinib),log2 fold change [11],log2 fold change [12],log2 fold change [13],log2 fold change (pinometostat),log2 fold change [14],log2 fold change [15]
POLA2 (UniProt Q14181),inactive: 0.042,inactive: 0.086,inactive: 0.021,inactive: -0.033,inactive: 0.048,inactive: 0.048,inactive: -0.044,inactive: -0.013,inactive: -0.063,inactive: -0.004,inactive: 0.015,inactive: -0.038,inactive: -0.073,inactive: -0.028,inactive: -0.083,active: -0.258,inactive: 0.011,inactive: 0.041,inactive: -0.021,–
PMPCB (UniProt O75439),inactive: -0.022,inactive: 0,inactive: 0.031,inactive: 0.024,inactive: 0.019,inactive: 0.007,inactive: 0.023,inactive: 0.078,inactive: -0.014,inactive: 0.046,inactive: 0.035,inactive: 0.008,inactive: 0.01,inactive: 0.064,inactive: -0.108,inactive: 0.04,inactive: 0.012,inactive: -0.022,inactive: 0.015,–
PLK1 (UniProt P53350),inactive: -0.027,inactive: 0.035,inactive: 0.006,inactive: 0.079,inactive: -0.041,inactive: -0.017,inactive: -0.018,inactive: 0.058,inactive: -0.003,inactive: -0.039,inactive: -0.035,inactive: 0.022,active: -1.17,inactive: 0.006,inactive: -0.011,inactive: 0.186,inactive: 0.015,inactive: 0.019,inactive: 0.144,–
PNPLA2 (UniProt Q96AD5),inactive: 0.017,inactive: 0.052,inactive: 0.007,inactive: -0.021,inactive: 0.045,inactive: 0.063,inactive: -0.015,inactive: -0.027,inactive: 0.101,inactive: -0.034,inactive: -0.006,inactive: 0.166,inactive: -0.116,inactive: -0.009,inactive: 0.044,inactive: -0.184,inactive: 0.121,inactive: -0.018,inactive: -0.004,–
POLA1 (UniProt P09884),inactive: 0.03,inactive: 0.038,inactive: 0.042,inactive: -0.023,inactive: -0.032,inactive: 0,inactive: -0.013,inactive: 0.021,inactive: 0.006,inactive: -0.022,inactive: -0.034,inactive: -0.06,inactive: -0.02,inactive: -0.018,inactive: -0.066,inactive: -0.151,inactive: 0.005,inactive: -0.027,inactive: -0.066,–
POLR1A (UniProt O95602),inactive: -0.055,inactive: -0.236,inactive: 0.031,inactive: 0.058,inactive: 0.04,inactive: 0.005,inactive: 0.079,inactive: -0.096,inactive: 0,inactive: 0.125,inactive: 0.06,inactive: 0.06,inactive: 0.022,inactive: 0.153,inactive: -0.022,inactive: -0.091,inactive: 0.005,inactive: 0.07,inactive: -0.14,–
POP1 (UniProt Q99575),inactive: -0.01,inactive: 0.028,inactive: -0.015,inactive: 0.029,inactive: -0.011,inactive: 0.022,inactive: 0.017,inactive: -0.016,inactive: 0,inactive: -0.01,inactive: -0.024,inactive: 0,inactive: 0.001,inactive: 0.029,inactive: -0.006,inactive: 0.013,inactive: -0.03,inactive: 0.003,active: -0.271,–
PODXL2 (UniProt Q9NZ53),inactive: -0.001,inactive: 0.037,inactive: -0.002,inactive: 0.1,inactive: -0.207,inactive: 0.021,inactive: -0.011,inactive: -0.03,inactive: -0.064,inactive: 0.079,inactive: 0.115,inactive: -0.027,inactive: -0.03,inactive: 0.042,inactive: -0.007,inactive: 0.021,inactive: -0.022,inactive: 0.021,inactive: -0.132,inactive: -0.033
PMM2 (UniProt O15305),inactive: 0.03,inactive: -0.034,inactive: 0.008,inactive: -0.02,inactive: 0.023,inactive: 0.003,inactive: -0.014,inactive: -0.019,inactive: -0.004,inactive: 0.05,inactive: 0.025,inactive: -0.025,inactive: 0.012,inactive: -0.1,inactive: 0.009,inactive: 0.089,inactive: -0.032,inactive: -0.029,inactive: -0.015,–
POLE3 (UniProt Q9NRF9),inactive: 0.016,inactive: 0.016,inactive: -0.026,inactive: -0.033,inactive: -0.007,inactive: -0.008,inactive: -0.011,inactive: -0.001,inactive: 0.02,inactive: 0.049,inactive: 0.028,inactive: -0.053,inactive: -0.046,inactive: 0.073,inactive: 0.003,inactive: -0.006,inactive: -0.024,inactive: 0.007,inactive: -0.028,inactive: 0.006
POMK (UniProt Q9H5K3),inactive: -0.091,inactive: -0.007,inactive: 0.019,inactive: 0.005,inactive: -0.01,inactive: 0.071,inactive: 0.005,inactive: -0.019,inactive: 0.006,inactive: 0.005,inactive: 0.046,inactive: -0.036,inactive: -0.042,inactive: 0.032,inactive: -0.024,inactive: -0.23,inactive: 0.027,inactive: 0.094,inactive: 0.042,–
POGLUT1 (UniProt Q8NBL1),inactive: 0.006,inactive: -0.046,inactive: -0.041,inactive: -0.004,inactive: 0.055,inactive: 0.026,inactive: 0.167,inactive: -0.013,inactive: -0.007,inactive: -0.041,inactive: -0.032,inactive: -0.03,inactive: -0.047,inactive: 0.162,inactive: 0.058,inactive: 0.055,inactive: -0.106,inactive: 0.026,inactive: 0.016,–
POLD1 (UniProt P28340),inactive: 0.063,inactive: 0.039,inactive: -0.009,inactive: -0.016,inactive: 0.023,inactive: -0.024,inactive: 0.05,inactive: -0.058,inactive: -0.02,inactive: -0.022,inactive: -0.009,inactive: 0.021,inactive: -0.081,inactive: -0.02,inactive: -0.085,inactive: -0.12,inactive: 0.11,inactive: 0.024,inactive: -0.011,–
PLSCR1 (UniProt O15162),inactive: -0.023,inactive: 0.03,inactive: 0.089,inactive: 0.077,inactive: -0.004,inactive: 0.022,inactive: 0.061,inactive: -0.04,inactive: -0.008,inactive: 0.05,inactive: -0.003,inactive: 0.002,inactive: -0.025,inactive: -0.046,inactive: 0.047,inactive: 0.031,inactive: -0.036,inactive: -0.015,inactive: 0.031,–
POLR2D (UniProt O15514),inactive: -0.153,inactive: -0.048,inactive: 0.138,inactive: 0.204,inactive: 0.06,inactive: 0.087,inactive: -0.049,inactive: -0.011,inactive: 0.058,inactive: 0.064,inactive: 0.042,inactive: 0.082,active: 0.346,inactive: -0.012,inactive: -0.006,active: 0.374,inactive: -0.009,inactive: -0.026,inactive: 0.26,–
POMP (UniProt Q9Y244),inactive: 0.003,inactive: -0.018,active: 0.373,inactive: 0.015,inactive: -0.073,inactive: 0.086,inactive: -0.018,inactive: 0.003,inactive: 0.061,inactive: -0.034,inactive: 0.029,inactive: -0.002,inactive: -0.002,inactive: -0.022,inactive: -0.033,inactive: 0.009,inactive: -0.002,inactive: -0.023,inactive: -0.053,–
PLEKHM2 (UniProt Q8IWE5),inactive: 0.228,inactive: 0.07,inactive: 0.034,inactive: -0.03,inactive: 0.075,inactive: 0.069,inactive: 0.082,inactive: -0.065,inactive: -0.005,inactive: -0.066,inactive: -0.018,inactive: -0.073,inactive: -0.085,inactive: 0.162,inactive: 0.016,inactive: -0.034,inactive: -0.102,inactive: -0.042,inactive: 0.016,–

# Looked up above.
# Value for PLEKHM2 (UniProt Q8IWE5) under log2 fold change (erlotinib): inactive: 0.228
# Value for POLD1 (UniProt P28340) under log2 fold change [6]: inactive: 0.05
